In publication doi:10.1101/2022.03.29.486232 one finds binding data, which are given here for 26 molecules.

The chains behind the UniProt entries cited, without tags or fusion partners. Where a name states a change or a piece, a line headed by the entry shows the natural chain unless it says otherwise. Residues count along the entry.
UniProt P06837: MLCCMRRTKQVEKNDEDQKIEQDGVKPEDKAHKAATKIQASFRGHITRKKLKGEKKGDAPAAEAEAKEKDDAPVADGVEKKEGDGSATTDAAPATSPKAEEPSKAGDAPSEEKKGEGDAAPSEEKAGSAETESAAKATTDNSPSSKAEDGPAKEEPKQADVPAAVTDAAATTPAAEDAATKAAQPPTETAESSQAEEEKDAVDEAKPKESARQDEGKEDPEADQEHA
UniProt P24369, residues 34-216: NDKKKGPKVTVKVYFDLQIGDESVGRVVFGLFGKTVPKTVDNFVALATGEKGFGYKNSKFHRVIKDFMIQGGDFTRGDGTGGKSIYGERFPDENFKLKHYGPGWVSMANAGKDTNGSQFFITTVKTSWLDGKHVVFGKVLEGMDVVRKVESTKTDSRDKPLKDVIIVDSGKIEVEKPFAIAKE
UniProt P56480, residues 47-529: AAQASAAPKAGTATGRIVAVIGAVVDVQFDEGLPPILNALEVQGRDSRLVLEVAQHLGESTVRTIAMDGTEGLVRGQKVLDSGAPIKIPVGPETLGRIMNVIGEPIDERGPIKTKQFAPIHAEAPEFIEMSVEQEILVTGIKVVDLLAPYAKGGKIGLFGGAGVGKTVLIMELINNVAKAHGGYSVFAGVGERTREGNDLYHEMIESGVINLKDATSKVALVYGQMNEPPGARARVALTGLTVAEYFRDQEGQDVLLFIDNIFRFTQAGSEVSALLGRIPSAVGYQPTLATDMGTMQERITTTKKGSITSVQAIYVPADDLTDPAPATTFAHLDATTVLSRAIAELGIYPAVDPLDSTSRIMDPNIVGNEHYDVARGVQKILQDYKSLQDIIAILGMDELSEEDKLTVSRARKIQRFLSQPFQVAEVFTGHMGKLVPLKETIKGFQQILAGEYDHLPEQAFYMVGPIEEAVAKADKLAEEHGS
UniProt Q811D0: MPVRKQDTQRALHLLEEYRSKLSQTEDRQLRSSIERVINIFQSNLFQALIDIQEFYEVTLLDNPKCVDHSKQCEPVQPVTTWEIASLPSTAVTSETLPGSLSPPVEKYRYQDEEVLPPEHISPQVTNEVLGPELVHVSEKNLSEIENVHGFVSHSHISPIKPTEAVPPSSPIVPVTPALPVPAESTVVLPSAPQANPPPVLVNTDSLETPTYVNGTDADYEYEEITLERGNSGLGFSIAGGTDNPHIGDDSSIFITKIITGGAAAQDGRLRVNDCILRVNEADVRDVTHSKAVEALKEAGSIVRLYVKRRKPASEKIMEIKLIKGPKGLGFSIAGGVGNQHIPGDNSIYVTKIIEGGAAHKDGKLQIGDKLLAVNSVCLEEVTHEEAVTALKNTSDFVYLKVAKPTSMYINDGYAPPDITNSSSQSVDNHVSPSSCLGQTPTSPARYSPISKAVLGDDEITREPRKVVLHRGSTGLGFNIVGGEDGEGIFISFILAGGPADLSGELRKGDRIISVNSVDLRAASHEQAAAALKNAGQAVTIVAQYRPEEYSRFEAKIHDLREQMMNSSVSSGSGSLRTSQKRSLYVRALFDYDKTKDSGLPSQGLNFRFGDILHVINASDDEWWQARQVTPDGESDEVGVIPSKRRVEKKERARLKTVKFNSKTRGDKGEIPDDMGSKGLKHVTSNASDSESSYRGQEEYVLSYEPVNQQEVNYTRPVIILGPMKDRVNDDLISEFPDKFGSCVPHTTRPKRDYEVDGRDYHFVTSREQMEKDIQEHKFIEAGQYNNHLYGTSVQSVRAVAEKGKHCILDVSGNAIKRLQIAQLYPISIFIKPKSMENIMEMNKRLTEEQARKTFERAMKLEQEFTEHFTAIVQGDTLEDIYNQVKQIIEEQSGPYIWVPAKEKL
UniProt Q61923: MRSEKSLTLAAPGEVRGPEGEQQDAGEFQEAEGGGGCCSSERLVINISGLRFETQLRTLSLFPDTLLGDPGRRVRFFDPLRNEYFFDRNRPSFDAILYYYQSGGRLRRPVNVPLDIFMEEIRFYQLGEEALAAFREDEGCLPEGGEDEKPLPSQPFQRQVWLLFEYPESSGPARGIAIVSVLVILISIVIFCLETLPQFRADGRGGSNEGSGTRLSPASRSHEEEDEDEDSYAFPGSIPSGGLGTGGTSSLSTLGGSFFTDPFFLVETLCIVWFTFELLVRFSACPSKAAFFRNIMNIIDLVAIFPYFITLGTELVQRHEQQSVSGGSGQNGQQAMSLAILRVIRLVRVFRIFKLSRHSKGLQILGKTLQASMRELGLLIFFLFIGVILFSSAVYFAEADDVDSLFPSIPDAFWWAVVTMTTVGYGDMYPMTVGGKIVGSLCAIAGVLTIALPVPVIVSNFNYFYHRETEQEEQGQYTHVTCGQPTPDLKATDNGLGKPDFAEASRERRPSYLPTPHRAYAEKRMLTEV
UniProt Q7TQD2: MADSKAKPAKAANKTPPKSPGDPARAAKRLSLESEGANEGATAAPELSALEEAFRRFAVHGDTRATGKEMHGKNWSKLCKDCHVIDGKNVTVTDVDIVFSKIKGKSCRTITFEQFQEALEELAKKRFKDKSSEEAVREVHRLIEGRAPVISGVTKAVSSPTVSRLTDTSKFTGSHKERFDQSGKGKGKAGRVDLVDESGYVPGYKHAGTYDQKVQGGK
UniProt P60761: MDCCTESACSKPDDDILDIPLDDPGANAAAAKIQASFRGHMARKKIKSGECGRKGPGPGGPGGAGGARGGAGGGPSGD
UniProt Q9JIS5: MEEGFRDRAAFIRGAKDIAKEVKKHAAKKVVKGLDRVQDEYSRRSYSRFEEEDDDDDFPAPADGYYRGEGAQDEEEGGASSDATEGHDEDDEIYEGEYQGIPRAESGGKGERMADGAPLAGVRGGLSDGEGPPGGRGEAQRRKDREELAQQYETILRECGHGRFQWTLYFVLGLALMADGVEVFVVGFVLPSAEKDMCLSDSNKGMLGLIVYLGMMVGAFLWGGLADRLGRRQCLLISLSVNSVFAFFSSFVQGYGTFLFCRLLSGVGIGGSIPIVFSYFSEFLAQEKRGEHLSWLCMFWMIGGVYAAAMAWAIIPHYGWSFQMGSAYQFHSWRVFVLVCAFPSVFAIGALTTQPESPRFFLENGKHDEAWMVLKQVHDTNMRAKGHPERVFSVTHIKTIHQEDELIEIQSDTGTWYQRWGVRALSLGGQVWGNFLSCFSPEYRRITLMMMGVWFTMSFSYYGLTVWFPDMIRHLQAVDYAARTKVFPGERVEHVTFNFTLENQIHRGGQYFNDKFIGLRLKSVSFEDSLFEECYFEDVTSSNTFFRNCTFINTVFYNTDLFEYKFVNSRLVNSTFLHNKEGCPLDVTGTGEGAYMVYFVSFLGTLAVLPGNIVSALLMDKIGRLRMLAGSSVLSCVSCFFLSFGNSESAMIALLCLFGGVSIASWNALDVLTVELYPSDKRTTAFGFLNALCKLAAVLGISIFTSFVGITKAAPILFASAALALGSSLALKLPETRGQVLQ
UniProt P07356: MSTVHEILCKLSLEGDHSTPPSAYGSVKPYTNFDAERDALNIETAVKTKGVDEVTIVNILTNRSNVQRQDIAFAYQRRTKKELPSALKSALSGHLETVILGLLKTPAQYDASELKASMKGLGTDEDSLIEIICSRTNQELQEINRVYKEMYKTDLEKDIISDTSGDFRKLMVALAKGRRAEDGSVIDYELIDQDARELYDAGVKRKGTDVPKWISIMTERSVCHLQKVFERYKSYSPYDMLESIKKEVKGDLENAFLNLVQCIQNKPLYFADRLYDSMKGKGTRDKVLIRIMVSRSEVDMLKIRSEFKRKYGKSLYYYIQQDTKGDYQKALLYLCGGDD
UniProt Q9DC28: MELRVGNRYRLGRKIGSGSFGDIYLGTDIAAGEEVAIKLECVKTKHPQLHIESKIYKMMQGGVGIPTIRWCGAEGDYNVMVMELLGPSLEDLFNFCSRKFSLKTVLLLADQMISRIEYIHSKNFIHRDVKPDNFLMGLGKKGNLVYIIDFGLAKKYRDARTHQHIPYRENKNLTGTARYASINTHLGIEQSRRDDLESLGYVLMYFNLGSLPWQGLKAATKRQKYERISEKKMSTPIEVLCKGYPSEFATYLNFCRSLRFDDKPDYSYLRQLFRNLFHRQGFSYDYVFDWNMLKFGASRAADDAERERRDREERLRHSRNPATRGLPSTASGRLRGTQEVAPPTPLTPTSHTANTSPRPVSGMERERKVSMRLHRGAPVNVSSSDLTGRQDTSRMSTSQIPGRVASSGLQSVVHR
UniProt Q9R0K7: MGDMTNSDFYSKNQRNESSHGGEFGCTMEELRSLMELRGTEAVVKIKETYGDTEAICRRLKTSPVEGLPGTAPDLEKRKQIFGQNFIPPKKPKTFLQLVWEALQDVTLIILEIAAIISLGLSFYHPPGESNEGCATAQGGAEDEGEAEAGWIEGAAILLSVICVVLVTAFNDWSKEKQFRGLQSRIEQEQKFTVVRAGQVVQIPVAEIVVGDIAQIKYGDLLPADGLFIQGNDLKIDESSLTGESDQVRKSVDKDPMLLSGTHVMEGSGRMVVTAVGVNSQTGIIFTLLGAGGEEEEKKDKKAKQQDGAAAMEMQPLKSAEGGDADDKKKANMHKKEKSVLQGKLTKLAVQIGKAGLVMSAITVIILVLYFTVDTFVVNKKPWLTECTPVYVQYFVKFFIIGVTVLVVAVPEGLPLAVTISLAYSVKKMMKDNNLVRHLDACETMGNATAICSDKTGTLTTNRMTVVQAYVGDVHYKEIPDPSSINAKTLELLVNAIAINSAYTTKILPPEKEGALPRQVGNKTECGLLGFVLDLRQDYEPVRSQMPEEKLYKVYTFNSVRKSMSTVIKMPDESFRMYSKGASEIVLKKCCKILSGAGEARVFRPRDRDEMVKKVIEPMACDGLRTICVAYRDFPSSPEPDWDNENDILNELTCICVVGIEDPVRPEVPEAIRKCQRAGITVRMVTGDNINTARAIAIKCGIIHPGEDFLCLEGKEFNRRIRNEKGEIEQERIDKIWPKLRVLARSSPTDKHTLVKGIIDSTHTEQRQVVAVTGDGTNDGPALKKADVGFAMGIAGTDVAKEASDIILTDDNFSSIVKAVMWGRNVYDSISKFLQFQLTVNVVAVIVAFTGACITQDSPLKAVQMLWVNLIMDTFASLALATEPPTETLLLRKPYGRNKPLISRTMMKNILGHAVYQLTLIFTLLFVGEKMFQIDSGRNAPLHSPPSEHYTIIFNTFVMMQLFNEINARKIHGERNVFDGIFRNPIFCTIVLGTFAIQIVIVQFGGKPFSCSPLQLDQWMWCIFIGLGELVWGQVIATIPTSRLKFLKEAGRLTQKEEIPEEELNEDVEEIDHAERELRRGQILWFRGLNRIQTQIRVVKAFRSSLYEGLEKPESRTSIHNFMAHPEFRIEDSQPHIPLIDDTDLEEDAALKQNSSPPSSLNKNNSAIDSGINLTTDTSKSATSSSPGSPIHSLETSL
UniProt P63141: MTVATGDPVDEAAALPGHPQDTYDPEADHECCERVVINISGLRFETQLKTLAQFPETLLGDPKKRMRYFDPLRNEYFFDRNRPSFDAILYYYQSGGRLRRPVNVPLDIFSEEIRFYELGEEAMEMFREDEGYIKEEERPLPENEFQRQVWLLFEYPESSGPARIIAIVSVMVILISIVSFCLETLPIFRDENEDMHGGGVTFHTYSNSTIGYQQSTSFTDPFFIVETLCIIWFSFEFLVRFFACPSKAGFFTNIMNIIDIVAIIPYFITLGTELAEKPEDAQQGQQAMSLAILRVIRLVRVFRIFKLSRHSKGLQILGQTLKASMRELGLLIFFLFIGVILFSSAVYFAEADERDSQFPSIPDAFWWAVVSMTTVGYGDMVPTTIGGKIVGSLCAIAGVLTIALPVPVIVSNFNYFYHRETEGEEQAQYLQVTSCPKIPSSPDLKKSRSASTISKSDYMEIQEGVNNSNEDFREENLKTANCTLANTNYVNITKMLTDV
UniProt Q61423: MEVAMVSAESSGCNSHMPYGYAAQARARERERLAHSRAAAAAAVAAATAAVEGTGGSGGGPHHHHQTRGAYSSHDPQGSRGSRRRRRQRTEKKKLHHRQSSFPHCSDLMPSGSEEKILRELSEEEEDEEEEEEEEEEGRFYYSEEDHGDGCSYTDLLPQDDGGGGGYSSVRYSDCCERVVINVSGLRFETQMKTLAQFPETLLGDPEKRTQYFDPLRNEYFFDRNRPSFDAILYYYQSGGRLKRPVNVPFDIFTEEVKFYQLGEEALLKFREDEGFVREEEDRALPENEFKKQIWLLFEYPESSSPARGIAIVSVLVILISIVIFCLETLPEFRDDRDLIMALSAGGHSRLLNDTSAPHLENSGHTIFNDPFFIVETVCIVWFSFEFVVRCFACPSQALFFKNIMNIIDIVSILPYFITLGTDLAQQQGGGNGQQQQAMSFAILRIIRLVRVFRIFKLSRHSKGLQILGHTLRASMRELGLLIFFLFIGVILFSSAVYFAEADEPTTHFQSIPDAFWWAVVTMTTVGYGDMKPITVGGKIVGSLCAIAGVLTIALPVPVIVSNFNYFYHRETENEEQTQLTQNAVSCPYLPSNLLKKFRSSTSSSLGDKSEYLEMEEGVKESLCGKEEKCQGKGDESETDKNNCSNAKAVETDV

No constants are given. Whether binding was seen depends on the method and setting. In cells and extracts the contact can be indirect. These calls come from enrichment with a bait or labelling near it, and not all partners need be listed.

To fix the notation:
T1: leucine-rich glioma-inactivated 1 (LGI1), native, from mouse brain (mouse (endogenous in mouse brain)) (UniProt Q9JIA1)
T1 sequence: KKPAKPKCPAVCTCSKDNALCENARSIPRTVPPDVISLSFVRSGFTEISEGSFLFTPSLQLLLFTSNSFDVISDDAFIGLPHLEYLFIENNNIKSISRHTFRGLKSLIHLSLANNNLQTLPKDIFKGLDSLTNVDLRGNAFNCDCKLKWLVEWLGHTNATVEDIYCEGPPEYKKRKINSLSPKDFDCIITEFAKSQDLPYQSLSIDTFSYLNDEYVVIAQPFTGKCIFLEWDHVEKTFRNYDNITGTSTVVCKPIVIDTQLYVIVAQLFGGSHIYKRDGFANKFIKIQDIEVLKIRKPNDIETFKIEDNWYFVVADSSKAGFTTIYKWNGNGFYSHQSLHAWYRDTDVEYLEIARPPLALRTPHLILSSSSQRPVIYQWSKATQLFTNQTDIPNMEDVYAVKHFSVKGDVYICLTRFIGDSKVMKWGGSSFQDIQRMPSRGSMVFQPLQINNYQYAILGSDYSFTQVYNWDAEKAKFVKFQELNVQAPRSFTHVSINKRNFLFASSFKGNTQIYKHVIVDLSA

B1: ADAM11 (protein, UniProt Q9R1V4 230-773)
chain: QVRRGHPTVHSETKYVELIVINDHQLFEQMRQSVVLTSNFAKSVVNLADVIYKEQLNTRIVLVAMETWADGDKIQVQDDLLETLARLMVYRREGLPEPSDATHLFSGRTFQSTSSGAAYVGGICSLSRGGGVNEYGNMGAMAVTLAQTLGQNLGMMWNKHRSSAGDCKCPDIWLGCIMEDTGFYLPRKFSRCSIDEYNQFLQEGGGSCLFNKPLKLLDPPECGNGFVEAGEECDCGSVQECSRAGGNCCKKCTLTHDAMCSDGLCCRRCKYEPRGVSCREAVNECDIAETCTGDSSQCPPNLHKLDGYYCDHEQGRCYGGRCKTRDRQCQALWGHAAADRFCYEKLNVEGTERGNCGRKGSGWVQCSKQDVLCGFLLCVNISGAPRLGDLGGDISSVTFYHQGKELDCRGGHVQLADGSDLSYVEDGTACGPNMLCLDHRCLPASAFNFSTCPGSGERRICSHHGVCSNEGKCICQPDWTGKDCSIHNPLPTSPPTGETERYKGPSGTNIIIGSIAGAVLVAAIVLGGTGWGFKNIRRGRSGGA
B2: Lin7A (Veli1) (protein, UniProt Q8JZS0 1-233)
chain: MLKPSVTSAPTADMATLTVVQPLTLDRDVARAIELLEKLQESGEVPVHKLQSLKKVLQSEFCTAIREVYQYMHETITVNGCPEFRARATAKATVAAFAASEGHSHPRVVELPKTDEGLGFNVMGGKEQNSPIYISRIIPGGVAERHGGLKRGDQLLSVNGVSVEGEHHEKAVELLKAAKDSVKLVVRYTPKVLEEMEARFEKLRTARRRQQQQLLIQQQQQQQQQQPQQNHMS
B3: Lin7C (Veli3) (protein, UniProt O88952 1-197)
chain: MAALGEPVRLERDICRAIELLEKLQRSGEVPPQKLQALQRVLQSEFCNAVREVYEHVYETVDISSSPEVRANATAKATVAAFAASEGHSHPRVVELPKTEEGLGFNIMGGKEQNSPIYISRIIPGGIADRHGGLKRGDQLLSVNGVSVEGEHHEKAVELLKAAQGKVKLVVRYTPKVLEEMESRFEKMRSAKRRQQT
B4: LANC2 (LanC-like protein 2) (protein, UniProt Q9JJK2 1-450)
chain: MGETMSKRLKFHLGEAEMEERSFPNPFPDYEAAASAAGLAAGSAEETGRVCPLPTTEDPGLPFHPNGKIVPNFIKRIQTKIKDLLQQMEEGLKTADPHDCSAYTGWTGIALLYLQLYRVTGDQTYLLRSLDYVKRTLRNLSGRRVTFLCGDAGPLAVGAVIYHKLKSECESQECITKLLQMHRTIVCQESELPDELLYGRAGYLYALLYLNTEIGPGTVGETAIKEVVSAIIESGKSLSREERKSERCPLLYQWHRKQYVGAAHGMAGIYYMLMQPEAKVDQETLTEMVKPSIDYVRHKKFRSGNYPSSLSNETDRLVHWCHGAPGVIHVLLQAYQVFKEEKYLKEAMECSDVIWQRGLLRKGYGICHGTSGNGYSFLSLYRLTQDKKYLYRACKFAEWCLDYGAHGCRIPDRPYSLFEGMAGAVHFLSDILVPETARFPAFELGFLQKD
B5: SAP102 (protein, UniProt P70175 1-849)
chain: MHKHQHCCKCPECYEVTRLAALRRLEPPGYGDWQVPDPYGPSGGNGASSGYGGYSSQTLPSQAGATPTPRTKAKLIPTGRDVGPVPPKPVPGKSTPKLNGSGPGWWPECTCTNRDWYEQASPAPLLVNPEALEPSLSVNGSDGMFKYEEIVLERGNSGLGFSIAGGIDNPHVPDDPGIFITKIIPGGAAAMDGRLGVNDCVLRVNEVDVSEVVHSRAVEALKEAGPVVRLVVRRRQPPPETIMEVNLLKGPKGLGFSIAGGIGNQHIPGDNSIYITKIIEGGAAQKDGRLQIGDRLLAVNNTNLQDVRHEEAVASLKNTSDMVYLKVAKPGSIHLNDMYAPPDYASTFTALADNHISHNSSLGYLGAVESKVTYPAPPQVPPTRYSPIPRHMLAEEDFTREPRKIILHKGSTGLGFNIVGGEDGEGIFVSFILAGGPADLSGELRRGDRILSVNGVNLRNATHEQAAAALKRAGQSVTIVAQYRPEEYSRFESKIHDLREQMMNSSMSSGSGSLRTSEKRSLYVRALFDYDRTRDSCLPSQGLSFSYGDILHVINASDDEWWQARLVTPHGESEQIGVIPSKKRVEKKERARLKTVKFHARTGMIESNRDFPGLSDDYYGAKNLKGVTSNTSDSESSSKGQEDAILSYEPVTRQEIHYARPVIILGPMKDRVNDDLISEFPHKFGSCVPHTTRPRRDNEVDGQDYHFVVSREQMEKDIQDNKFIEAGQFNDNLYGTSIQSVRAVAERGKHCILDVSGNAIKRLQQAQLYPIAIFIKPKSIEALMEMNRRQTYEQANKIFDKAMKLEQEFGEYFTAIVQGDSLEEIYNKIKQIIEDQSGHYIWVPSPEKL

The test addresses T1, leucine-rich glioma-inactivated 1 (LGI1), native, from mouse brain (mouse (endogenous in mouse brain)). As to the kind of experiment: affinity purification with mass spectrometry.
Regarding “mitochondrial creatine kinase KCRU (from UniProt P30275 40-418) (enzyme)”, the binding result is “binds”.

Turning to “neuromodulin (GAP43) (from UniProt P06837 1-227)”, the binding result is listed as “binds”.

With “excitatory amino acid transporter EAA2 (GLT-1) (from UniProt P43006 1-572)”, the binding result is “binds”.

With “peptidyl-prolyl cis-trans isomerase B (PPIB) (from UniProt P24369 34-216) (enzyme)”, the binding result is recorded as “binds”.

With “ATP synthase β subunit of the mitochondrial ATP synthase (from UniProt P56480 47-529)”, the binding entry is on record as “binds”.

In the case of SAP97 (from UniProt Q811D0 1-905), the binding entry is reported as “binds”.

On to “syntaxin1 (mouse (endogenous in mouse brain))”, for which the binding entry is reported as “binds”.

Turning to “Kv1.6 subunit (from UniProt Q61923 1-529)”, the binding result was “binds”.

In the case of “tubulin polymerization-promoting protein (TPPP) (from UniProt Q7TQD2 1-218)”, the binding entry is “binds”.

For the molecule neurogranin (from UniProt P60761 1-78), the binding result is “binds”.

“synaptic vesicle glycoprotein 2A (SV2A) (from UniProt Q9JIS5 1-742)”: the binding entry is given as “binds”.

On to “Kv1.1 subunit (from UniProt P16388 1-495)”, for which the binding entry was “binds”.

Regarding “synaptotagmin1 (from UniProt P46096 1-421)”, the binding result was “binds”.

As to “rabphilin-3A (from UniProt P47708 1-681)”, the binding result was “binds”.

With “annexin 2 (ANXA2) (from UniProt P07356 1-339)”, the binding result is “binds”.

For “casein kinase 1δ (from UniProt Q9DC28 1-415) (enzyme)”, the binding result is reported as “binds”.

For the molecule “plasma membrane calcium-transporting ATPase2 (AT2B2) (from UniProt Q9R0K7 1-1198)”, the binding entry is “binds weakly”.

For the molecule “casein kinase 1ε (from UniProt Q9JMK2 1-416) (enzyme)”, the binding entry is “binds”.

Take “PKCγ (KPCG) (from UniProt P63318 1-697) (enzyme)”: the binding result is given as “binds”.

“Kv1.2 subunit (from UniProt P63141 1-499)”: the binding entry is given as “binds”.

For the molecule “Kv1.4 subunit (from UniProt Q61423 1-654)”, the binding result is “binds”.

Regarding B1, the binding entry is recorded as “binds”.

For B2, the binding entry is recorded as “binds”.

On to B3, for which the binding entry is on record as “binds”.

For B4, the binding result is recorded as “binds”.

As to B5, the binding result is reported as “binds”.
